Counter-ions that a name gives are not always drawn.
Molecular target: USP7 (Homo sapiens, UniProt Q93009)
Assay: biochemical
Parameters: Ub-AMC hydrolysis by recombinant USP7 (20 nM), 30 min pre-incubation, fluorescence read-out
Conditions: read-out: % Inhibition at 50 μM

By UniProt entry, the sequences of proteins in these tests, tags left out.
UniProt Q93009, whole entry: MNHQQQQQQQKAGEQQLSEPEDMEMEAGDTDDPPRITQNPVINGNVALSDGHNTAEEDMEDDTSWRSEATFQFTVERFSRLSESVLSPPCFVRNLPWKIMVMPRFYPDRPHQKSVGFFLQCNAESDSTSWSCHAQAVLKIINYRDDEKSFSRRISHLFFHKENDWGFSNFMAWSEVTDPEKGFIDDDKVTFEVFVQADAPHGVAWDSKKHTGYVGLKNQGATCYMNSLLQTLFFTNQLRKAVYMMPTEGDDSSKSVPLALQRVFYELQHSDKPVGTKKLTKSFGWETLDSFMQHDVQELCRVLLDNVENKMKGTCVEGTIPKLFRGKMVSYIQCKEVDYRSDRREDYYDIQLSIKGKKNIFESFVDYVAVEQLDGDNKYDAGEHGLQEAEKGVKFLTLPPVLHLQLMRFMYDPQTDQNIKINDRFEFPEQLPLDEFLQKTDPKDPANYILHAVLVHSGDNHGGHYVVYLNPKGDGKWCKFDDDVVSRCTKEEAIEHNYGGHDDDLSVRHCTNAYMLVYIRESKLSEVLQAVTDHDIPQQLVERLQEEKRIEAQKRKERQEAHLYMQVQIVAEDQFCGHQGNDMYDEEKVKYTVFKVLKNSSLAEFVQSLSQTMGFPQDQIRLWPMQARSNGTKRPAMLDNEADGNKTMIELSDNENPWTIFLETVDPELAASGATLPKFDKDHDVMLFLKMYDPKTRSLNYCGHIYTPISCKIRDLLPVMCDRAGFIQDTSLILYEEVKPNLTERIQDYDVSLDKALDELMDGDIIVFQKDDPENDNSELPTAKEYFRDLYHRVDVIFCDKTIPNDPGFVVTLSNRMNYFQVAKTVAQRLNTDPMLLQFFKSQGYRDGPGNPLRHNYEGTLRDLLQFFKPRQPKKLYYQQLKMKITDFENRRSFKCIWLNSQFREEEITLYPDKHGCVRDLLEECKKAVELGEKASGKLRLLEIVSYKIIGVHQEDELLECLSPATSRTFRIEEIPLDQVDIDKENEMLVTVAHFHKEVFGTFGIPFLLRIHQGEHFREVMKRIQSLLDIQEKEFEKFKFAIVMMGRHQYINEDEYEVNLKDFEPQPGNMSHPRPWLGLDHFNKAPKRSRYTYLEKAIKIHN

Structure (SMILES)	inhibition at 50 µM
Cc1ccccc1C(OCCN(C)C)c1ccccc1 (centres unmarked) [Orphenadrine citrate]	< 5%
Clc1ccc2c(c1)CCc1cccnc1C2=C1CCNCC1 [Desloratadine]	< 5%

From publication PMC5363571 (Oncotarget, 2016)
